This is one part of the list. This data set is noisy: repeats of one test often differ as much as different tests do.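 Fusion between ACE2-bearing and full-length-spike-bearing U2OS cells was measured by imaging as the percentage of nuclei with both cell types' fluorescent markers. An inhibitory hit is a non-toxic compound whose fusion z-score is below -3, more than three standard deviations beneath the plate's DMSO wells.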
Each molecule was assayed on U2OS ACE2 x SARS-CoV-2 spike co-culture (assay: cell-cell fusion (fraction fused) z-score vs plate DMSO control; higher = more fusion). Details: 30 µM; 5 h; toxicity class: non-toxic, passed QC.

Compound	cell-cell fusion (z-score)
COc1ccc(C(CN(C)C)C2(O)CCCCC2)cc1.Cl (stereo not drawn) [Venlafaxine hydrochloride]	inactive: 1.76
COc1ccc(C(CN(C)C)C2(O)CCCCC2)cc1.Cl (stereo not drawn)	inactive: 2.87
COc1ccc(C[C@H](N)C(=O)N[C@@H]2[C@@H](CO)OC(n3cnc4c(N(C)C)ncnc43)[C@@H]2O)cc1.Cl.Cl (stereo partly drawn)	inactive: 3.45
C[C@@H]1O[C@H](C[N+](C)(C)C)C[C@H]1O.[Cl-] (racemic) [(±)-Muscarine chloride]	inactive: 2.13
COC(=O)C[C@H]1C(C)(C)[C@@H](OC(C)=O)[C@@H]2CC3C4CC(=O)O[C@@H](c5ccoc5)[C@]4(C)CCC3[C@@]1(C)C2=O (stereo partly drawn)	inactive: 2.37
Nc1nc(NCCNc2ncc(-n3ccnc3)c(-c3ccc(Cl)cc3Cl)n2)ccc1[N+](=O)[O-]	inactive: 1.62
CCN(CC)Cc1ccc(Nc2ccnc3cc(Cl)ccc23)cc1O.Cl.Cl	inactive: 0.158
C1N2CN3CN1CN(C2)C3	inactive: 1.27
CN(C)CCN(Cc1ccccc1)c1ccccn1.O=C(O)CC(O)(CC(=O)O)C(=O)O	inactive: -1.85
CC(C)(C)c1cnc(CSc2cnc(NC(=O)C3CCNCC3)s2)o1	inactive: 1.57
O=C(O)C1CCCNC1 (stereo not drawn)	inactive: -0.254
CCC(C)CCCCC(=O)NC(CCN)C(=O)NC(C(=O)NC(CCN)C(=O)NC1CCNC(=O)C(C(C)O)NC(=O)C(CCN)NC(=O)C(CCN)NC(=O)C(CC(C)C)NC(=O)C(Cc2ccccc2)NC(=O)C(CCN)NC1=O)C(C)O.O=S(=O)(O)O (stereo not drawn)	inactive: -0.127
CC(C)C(=O)Nc1ccc([N+](=O)[O-])c(C(F)(F)F)c1 [Flutamide]	inactive: 2.11
Oc1nc2cc(Cl)c(Cl)cc2nc1O	inactive: 1.25
CC(C)(C(=O)O)c1ccc(C(O)CCCN2CCC(C(O)(c3ccccc3)c3ccccc3)CC2)cc1.Cl (stereo not drawn) [Fexofenadine hydrochloride]	inactive: 3.17
CCCC1O[C@@H]2CC3C4CCC5=CC(=O)C=CC5(C)C4[C@@H](O)CC3(C)[C@]2(C(=O)CO)O1 (stereo partly drawn)	inactive: -1.78
CN1CCc2nc(C(=O)N[C@@H]3C[C@@H](C(=O)N(C)C)CC[C@@H]3NC(=O)C(=O)Nc3ccc(Cl)cn3)sc2C1 [Edoxaban]	inactive: 1.6
CN1CC[C@@]2(C)c3cc(O)ccc3N(C)C12.O=C(O)/C=C\C(=O)O (single isomer, unassigned; (-)) [(-)-Eseroline fumarate]	inactive: 1.21
C#C[C@]1(O)CCC2C3CCC4=CC(=O)CC[C@@H]4C3CC[C@@]21C (stereo partly drawn)	inactive: 0.612
CC(CCc1ccc(O)cc1)NCC(O)c1ccc(O)cc1.Cl (stereo not drawn)	inactive: 2.65
CC1(C)C(=O)CC[C@@]2(C)C1C[C@@H](O)[C@@]1(C)C3=CC(=O)O[C@@H](c4ccoc4)[C@]3(C)CCC21 (stereo partly drawn)	inactive: 1.87
C=CCc1ccc(OC)cc1	inactive: 1.61
CO[C@@]1(NC(=O)Cc2cccs2)C(=O)N2C(C(=O)[O-])=C(COC(N)=O)CS[C@@H]21.[Na+] [Cefoxitin sodium]	inactive: 0.352

Compound	cell-cell fusion (z-score)
O=c1cc(-c2ccccc2)oc2cc(O)ccc12	inactive: 1.98
Cc1cc(=O)oc2cc(O)ccc12	inactive: 3.62
CN(C)CCc1c[nH]c2ccc(Cn3cncn3)cc12.O=C(O)c1ccccc1 [Rizatriptan benzoate]	inactive: 2.01
CCC[C@@H]1C[C@@H](C(=O)N[C@@H]([C@H]2O[C@H](SC)[C@H](O)[C@@H](O)[C@H]2O)[C@@H](C)O)N(C)C1.Cl [Lincomycin hydrochloride]	inactive: 3.09
CCCCC/C=C\C/C=C\C/C=C\C/C=C\CCCC(=O)O	inactive: 2.49
NC(=O)c1cc[n+](CC2=C(C(=O)[O-])N3C(=O)C(NC(=O)C(c4ccccc4)S(=O)(=O)[O-])C3SC2)cc1.[Na+] (stereo not drawn)	inactive: -0.746
Cc1c(O)c(=O)n(-c2ccccc2)n1C	inactive: 3.78
C/C(=C\c1ccc(C(=O)O)cc1)c1ccc2c(c1)C(C)(C)CCC2(C)C	inactive: 0.657
Cc1cccc(C)c1NC(=O)C1CCCCN1C.Cl (stereo not drawn) [Mepivacaine hydrochloride]	inactive: 2.4
CCc1ccc(CCOc2ccc(CC3SC(=O)NC3=O)cc2)nc1.Cl (stereo not drawn)	inactive: 1.95
N=S(=O)([O-])Cc1noc2ccccc12.[Na+] [Zonisamide sodium]	inactive: 1.01
Cc1cc(C)nc([N-]S(=O)(=O)c2ccc(N)cc2)n1.[Na+] [Sulfamethazine sodium salt]	inactive: 2.46
Cc1cccc(-c2nn3c(c2-c2ccnc4ccc(C(N)=O)cc24)CCC3)n1	inactive: -0.315
CC(=O)O[C@@H]1CC2C(C)(C)C(=O)C=C[C@]2(C)C2CC[C@@]3(C)[C@H](c4ccoc4)OC(=O)[C@H]4O[C@]43[C@@]21C (stereo partly drawn)	inactive: 2.3
Cl.NOCC(=O)O.NOCC(=O)O [O-(Carboxymethyl)hydroxylamine hemihydrochloride]	inactive: 2.37
CC(C)(CO)[C@@H](O)C(=O)NCCCO	inactive: 2.3
CC(=O)CC(=O)CCC(=O)O	inactive: 2.46
CCCCCc1ccc(/C=C/C(=O)Nc2cc(Cl)ccc2C(=O)O)cc1	inactive: 1.75
CC[C@H](/C=C/C(C)C1CCC2C3CCC4=CC(=O)CC[C@]4(C)C3CC[C@]12C)C(C)C (stereo partly drawn)	inactive: 2.07
CN(Cc1ccc(C(C)(C)C)cc1)Cc1cccc2ccccc12.Cl [Butenafine hydrochloride]	inactive: 1.36
CC(C(O)c1ccc(O)cc1)N1CCC(Cc2ccccc2)CC1.O=C(O)[C@H](O)[C@@H](O)C(=O)O (stereo not drawn)	inactive: 1.67
N[C@H](CCCP(=O)(O)O)C(=O)O [D(-)-2-Amino-5-phosphonopentanoic acid]	inactive: 2.2
Nc1nc2ccc(Cl)cc2c2nc(-c3ccco3)nn12	inactive: 0.927

Compound	cell-cell fusion (z-score)
CC(=O)Oc1ccccc1C(=O)Oc1ccccc1C(=O)O	inactive: 3.41
O=P(O)(O)OC(Cn1cncn1)(Cn1cncn1)c1ccc(F)cc1F [Fosfluconazole]	inactive: 2.94
CN[C@H](CC(C)C)C(=O)N[C@H]1C(=O)N[C@@H](CC(N)=O)C(=O)N[C@H]2C(=O)N[C@H]3C(=O)N[C@H](C(=O)N[C@H](C(=O)O)c4cc(O)cc(O)c4-c4cc3ccc4O)[C@H](O)c3ccc(c(Cl)c3)Oc3cc2cc(c3O[C@@H]2O[C@H](CO)[C@@H](O)[C@H](O)[C@H]2O[C@H]2C[C@](C)(N)[C@H](O)[C@H](C)O2)Oc2ccc(cc2Cl)[C@H]1O.Cl [Vancomycin hydrochloride from Streptomyces orientalis]	inactive: 2.56
Nc1ccccc1NC(=O)c1ccc(CNC(=O)OCc2cccnc2)cc1 [Entinostat (MS-275, SNDX-275)]	inactive: 1.66
C/C=C/C(=O)N(CC)c1ccccc1C [Crotamiton]	inactive: 3.64
CC(C)c1onc(-c2c(Cl)cccc2Cl)c1COc1ccc(/C=C/c2cccc(C(=O)O)c2)c(Cl)c1	inactive: 2.04
O=S(=O)([O-])CCS.[Na+]	inactive: 3.64
O=S(=O)([O-])CCS.[Na+] [Mesna]	inactive: 3.95
CC1COc2c(N3CCN(C)CC3)c(F)cc3c(=O)c(C(=O)O)cn1c23 (stereo not drawn) [Ofloxacin]	inactive: 2.63
CC(=O)OCC(=O)[C@@]1(O)CC[C@H]2[C@@H]3CCC4=CC(=O)CC[C@]4(C)[C@@]3(F)[C@@H](O)C[C@@]21C [Fludrocortisone acetate]	inactive: -1.4
C=C(C)[C@H]1Cc2c(ccc3c2O[C@@H]2COc4cc(OC)c(OC)cc4[C@@H]2C3=O)O1	inactive: 1.04
CN1c2c(nc(N)[nH]c2=O)NCC1CNc1ccc(C(=O)NC(CCC(=O)[O-])C(=O)[O-])cc1.[Ca+2] (stereo not drawn) [Levomefolate calcium]	inactive: 4.11
CC(C)[N+]1(C)C2CCC1CC(C(=O)OC(CO)c1ccccc1)C2.[Br-] (stereo not drawn) [Ipratropium bromide]	inactive: 2.02
COc1cc2nc(N(C)CCCNC(=O)C3CCCO3)nc(N)c2cc1OC.Cl (stereo not drawn) [Alfuzosin hydrochloride]	inactive: 1.2
N[C@@H](CCCC(=O)O)C(=O)O [L-2-aminoadipic acid]	inactive: 2.49
C=C1CC2C3C=C(C)C4=CC(=O)CC[C@]4(C)C3CC[C@]2(C)[C@@]1(OC(C)=O)C(C)=O (stereo partly drawn)	inactive: 2.46
CC(=O)OC1CC[C@@]2(C)C(CCC3C2CC[C@]2(C)C(C4=CC(=O)OC4)C(OC(C)=O)CC32O)C1 (stereo partly drawn)	inactive: 1.27
Cl.OC(CCN1CCCCC1)(c1ccccc1)C1CC2C=CC1C2 (stereo not drawn) [Biperiden hydrochloride]	inactive: 0.529
CC(C)(C#N)c1cc(Cn2cncn2)cc(C(C)(C)C#N)c1 [Anastrozole]	inactive: 1.07
CC1=C(C)C(=O)C(CCCCC#CCCCC#CCO)=C(C)C1=O	inactive: 2.36
Cc1occc(=O)c1O	inactive: 1.94
O=C([O-])Cc1ccccc1Nc1c(Cl)cccc1Cl.[Na+]	inactive: 0.99

Quoted at random: three records from the list
Compound	cell-cell fusion (z-score)
CN(C)CCc1c[nH]c2ccc(Cn3cncn3)cc12.O=C(O)c1ccccc1 [Rizatriptan benzoate]	inactive: 2.01
C1N2CN3CN1CN(C2)C3	inactive: 1.27
Nc1nc2ccc(Cl)cc2c2nc(-c3ccco3)nn12	inactive: 0.927

Given bar-delimited: part of the list above.
Compound | cell-cell fusion (z-score)
CN1CC[C@@]2(C)c3cc(O)ccc3N(C)C12.O=C(O)/C=C\C(=O)O (single isomer, unassigned; (-)) [(-)-Eseroline fumarate] | inactive: 1.21
C/C=C/C(=O)N(CC)c1ccccc1C [Crotamiton] | inactive: 3.64
